The results in this text go back to patent US20100092455A1 (PIERRE FABRE MEDICAMENT, published 2010).

No constants are given. Whether binding was seen depends on the method and setting. Some binding calls cover weakened binding; strength is not graded here.

The assay has as its target T1, JAM-a (antigen of the binding assays of Example 11; form not stated) (UniProt Q9Y624).
T1 sequence (looked up): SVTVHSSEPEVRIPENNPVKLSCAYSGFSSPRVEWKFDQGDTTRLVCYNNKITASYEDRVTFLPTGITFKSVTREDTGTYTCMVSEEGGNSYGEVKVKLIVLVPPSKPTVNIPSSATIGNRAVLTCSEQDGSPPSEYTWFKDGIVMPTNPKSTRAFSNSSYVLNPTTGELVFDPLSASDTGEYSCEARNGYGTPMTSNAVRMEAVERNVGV
The assay can be described thus: ELISA, data not shown.

B1: recombinant chimeric 6F4 antibody (antibody, V domains shown)
VH: EIQLQQSGPELVKPGASVKVSCKASGYSFTDYSMYWVKQSHGKSLEWIGYIDPYNGGTRYNQKFKGKATLTVDKSSSTAFMHLNSLTSEDSAVYYCARQTDYFDYWGQGTTLTVSS
VL: DIQMTQSPSSLSASLGGKVTITCKASQDINNYIAWYQHKPGKGPRLLIHYTSTLQAGIPSRFSGSGSGRDYSFSISNLEPEDIGTYYCLQYDNLWTFGGGTKLEIK
For B1, the binding entry is on record as “binds”.
